The subject of the assay is BDF1 mice, P388 leukemia ip, median survival T/C. Put plainly: NCI In Vivo Anticancer Drug Screen. Data for tumor model P388 Leukemia (intraperitoneal) in B6D2F1 (BDF1) mice. The settings on record: T/C endpoint: median survival time, higher T/C = longer survival. In short, it runs like this: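 In tumour-bearing mice, survival after compound treatment is set against the vehicle group and given as a quotient.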

Setting [1] is: dose: 200.0 mg/kg/injection, schedule: Q01DX009 (ip), vehicle: saline with Tween-80.
Setting [2] is: dose: 1.25 mg/kg/injection, schedule: Q04DX003 (ip), vehicle: saline.

For 13 molecules, T/C and survivor count results are on record in PubChem BioAssay AID328 (DTP/NCI, 2004).

The list shows only some results of the screen, not a fair sample: it is rich in T/C values a quarter to a half above the control, in often repeated tests (any T/C) and in doses without a T/C. Other doses and runs of a compound stand elsewhere. T/C is the treated group as % of the vehicle group. Some doses have a count of surviving animals in place of a T/C: the source holds a T/C of zero for them, seemingly a mark for toxic or unscored doses. Some doses without a T/C left all or most animals alive at the check, yet need not have been tolerated: the source hardly ever lists a survival T/C far under the control, and the zero likely stands for such cases as well. Survivors were counted at the toxicity check, usually on the fifth day, unless a day is given; later deaths do not show. Schedules are NCI's codes, read here as Q, the interval in days (D) or hours (H), X, the number of doses. Some entries were tested several times; the values are given in rising order. For survival time, this PubChem deposit counts one and a half times the control or more as active, and values a quarter to a half above the control carry no call in these data; other NCI protocols may use other cut-offs. Some T/C values carry the count of animals alive at the toxicity check (mostly the fifth day); without a count, all were alive then.

Regarding `O=C(O)c1cc(S(=O)(=O)F)cc(S(=O)(=O)F)c1`, the T/C (dose: 50.0 mg/kg/injection, schedule: Q01DX009 (ip), vehicle: alcohol) was 127 % of control and the T/C (dose: 75.0 mg/kg/injection, schedule: Q01DX009 (ip), vehicle: alcohol) is 125 % of control. Further, under “dose: 100.0 mg/kg/injection, schedule: Q01DX009 (ip), vehicle: alcohol”, the survivor count is 1 of 6.
As for `C=C1C(=O)OC2C3OC(C)(CCC(O)C3COC(C)=O)CC(OC(=O)/C(=C/C)COC(C)=O)C12` (stereo not given), the T/C reads like this: (dose: 12.5 mg/kg/injection, schedule: Q01DX009 (ip), vehicle: Klucel (hydroxypropylcellulose) (HPC)) 132 % of control; (dose: 25.0 mg/kg/injection, schedule: Q01DX009 (ip), vehicle: Klucel (hydroxypropylcellulose) (HPC)) 132 % of control. Besides, the survivor count by setting is: (dose: 50.0 mg/kg/injection, schedule: Q01DX009 (ip), vehicle: Klucel (hydroxypropylcellulose) (HPC)) 4 of 6; (dose: 100.0 mg/kg/injection, schedule: Q01DX009 (ip), vehicle: Klucel (hydroxypropylcellulose) (HPC)) 0 of 6; (dose: 200.0 mg/kg/injection, schedule: Q01DX009 (ip), vehicle: Klucel (hydroxypropylcellulose) (HPC)) 0 of 6; (dose: 400.0 mg/kg/injection, schedule: Q01DX009 (ip), vehicle: Klucel (hydroxypropylcellulose) (HPC)) 0 of 6.
As for `c1ccc(-c2c[se]nn2)cc1`, the survivor count reads like this: (dose: 12.5 mg/kg/injection, schedule: Q01DX009 (ip), vehicle: saline with Tween-80) 5 of 6; (dose: 25.0 mg/kg/injection, schedule: Q01DX009 (ip), vehicle: saline with Tween-80) 4 of 6; (dose: 50.0 mg/kg/injection, schedule: Q01DX009 (ip), vehicle: saline with Tween-80) 4 of 6; (dose: 100.0 mg/kg/injection, schedule: Q01DX009 (ip), vehicle: saline with Tween-80) 0 of 6; under setting [1], 0 of 6.
Regarding `CC1(CCNC2CCCCC2)Oc2ccccc2O1`, where the note is “dose: 200.0 mg/kg/injection, schedule: Q04DX002 (ip), vehicle: Klucel (hydroxypropylcellulose) (HPC)”, the survivor count is given as 1 of 6.
For `C(=C\c1ccccc1)/C=N/N=C/C=C/c1ccccc1`, the survivor count (dose: 100.0 mg/kg/injection, schedule: Q04DX003 (ip), vehicle: saline with Tween-80) is on record as 6 of 6; the survivor count (dose: 200.0 mg/kg/injection, schedule: Q04DX003 (ip), vehicle: saline with Tween-80) is listed as 6 of 6; the survivor count (dose: 400.0 mg/kg/injection, schedule: Q04DX003 (ip), vehicle: saline with Tween-80) is 6 of 6.
On to `C/C(=C\c1ccc(C)cc1)[N+](=O)[O-]`, for which the survivor count (dose: 140.0 mg/kg/injection, schedule: Q01DX010 (ip), vehicle: saline) is reported as 6 of 6.
For `CCN1C=C/C(=C\C=C/c2cc[n+](CC)c3ccccc23)c2ccccc21`, the T/C is 127 % of control (dose: 0.11 mg/kg/injection, schedule: Q01DX009 (ip), vehicle: saline); 145 % of control (dose: 0.17 mg/kg/injection, schedule: Q01DX009 (ip), vehicle: saline); 145 % of control (dose: 0.2 mg/kg/injection, schedule: Q01DX009 (ip), vehicle: saline); 145 % of control (dose: 0.25 mg/kg/injection, schedule: Q01DX009 (ip), vehicle: saline); 130 % of control (dose: 0.27 mg/kg/injection, schedule: Q04DX003 (ip), vehicle: saline); 145 % of control (dose: 0.38 mg/kg/injection, schedule: Q01DX009 (ip), vehicle: saline). For the same molecule, the T/C runs as follows: (dose: 0.4 mg/kg/injection, schedule: Q01DX009 (ip), vehicle: saline) 146 % of control [5 of 6 alive]; (dose: 0.44 mg/kg/injection, schedule: Q04DX003 (ip), vehicle: saline) 133 and 140 % of control [5 of 6 alive]; (dose: 0.5 mg/kg/injection, schedule: Q04DX003 (ip), vehicle: saline) 127 % of control; (dose: 0.66 mg/kg/injection, schedule: Q04DX003 (ip), vehicle: saline) 141 % of control; (dose: 1.0 mg/kg/injection, schedule: Q04DX003 (ip), vehicle: saline) 127 [5 of 6 alive], 137, 140 % of control [5 of 6 alive]; under setting [2], 140 % of control. The T/C was 125 % of control (dose: 66.0 micrograms/kg/injection, schedule: Q01DX009 (ip), vehicle: saline); 125 % of control (dose: 100.0 micrograms/kg/injection, schedule: Q01DX009 (ip), vehicle: saline); 129 % of control (dose: 150.0 micrograms/kg/injection, schedule: Q01DX009 (ip), vehicle: saline). The survivor count is, setting by setting: (dose: 0.62 mg/kg/injection, schedule: Q01DX009 (ip), vehicle: saline) 6 of 6; (dose: 0.82 mg/kg/injection, schedule: Q04DX003 (ip), vehicle: saline) 1 of 6; (dose: 0.93 mg/kg/injection, schedule: Q01DX009 (ip), vehicle: Klucel (hydroxypropylcellulose) (HPC)) 6 of 6; (dose: 0.93 mg/kg/injection, schedule: Q01DX009 (ip), vehicle: saline) 1 of 6; (dose: 1.0 mg/kg/injection, schedule: Q01DX009 (ip), vehicle: saline) 1 of 6; under setting [2], 0 of 6 and 3 of 6. For the same molecule, the survivor count reads like this: (dose: 1.87 mg/kg/injection, schedule: Q04DX003 (ip), vehicle: saline) 2 of 6 and 4 of 6; (dose: 2.0 mg/kg/injection, schedule: Q04DX003 (ip), vehicle: saline) 3 of 6; (dose: 2.5 mg/kg/injection, schedule: Q04DX003 (ip), vehicle: saline) 1 of 6; (dose: 5.0 mg/kg/injection, schedule: Q04DX003 (ip), vehicle: alcohol) 4 of 6; (dose: 10.0 mg/kg/injection, schedule: Q04DX003 (ip), vehicle: alcohol) 0 of 6; (dose: 20.0 mg/kg/injection, schedule: Q04DX003 (ip), vehicle: alcohol) 0 of 6.
For the molecule `Cc1ccc(C(=Nc2ccccc2)c2ccccc2C)cc1`, the survivor count runs as follows: (dose: 50.0 mg/kg/injection, schedule: Q04DX002 (ip), vehicle: saline with Tween-80) 5 of 5; (dose: 200.0 mg/kg/injection, schedule: Q04DX002 (ip), vehicle: saline with Tween-80) 6 of 6; (dose: 400.0 mg/kg/injection, schedule: Q04DX002 (ip), vehicle: saline with Tween-80) 6 of 6.
Turning to `CCN(CCNc1ccc(C)c2sc3cc(Cl)ccc3c(=O)c12)CC(C)O` (stereo not given), the survivor count (dose: 400.0 mg/kg/injection, schedule: Q01DX009 (ip), vehicle: saline) is reported as 3 of 6.
In the case of `C=C(Br)CNCCCCCC`, the survivor count is, setting by setting: (dose: 45.0 mg/kg/injection, schedule: Q04DX003 (ip), vehicle: Klucel (hydroxypropylcellulose) (HPC)) 0 of 6; (dose: 150.0 mg/kg/injection, schedule: Q04DX003 (ip), vehicle: Klucel (hydroxypropylcellulose) (HPC)) 0 of 6.
`COC(=O)C1c2cc3c(cc2C(OC2OC(C)C(OC)C(C)(OC)C2OC)CC1(C)O)C(=O)c1c(O)cc2c(c1C3=O)OC1OC2(C)C(O)C([N+](C)(C)[O-])C1O` (stereo not given): the survivor count is 2 of 6 and 4 of 6 (dose: 25.0 mg/kg/injection, schedule: Q01DX010 (ip), vehicle: saline); 2 of 6 (dose: 50.0 mg/kg/injection, schedule: Q01DX010 (ip), vehicle: saline); 0 of 6 (dose: 100.0 mg/kg/injection, schedule: Q01DX010 (ip), vehicle: saline); 0 of 6 (dose: 200.0 mg/kg/injection, schedule: Q01DX010 (ip), vehicle: saline).
`C[C@]12C=CC(=O)C=C1CC[C@@H]1[C@@H]2[C@@H](O)C[C@@]2(C)[C@H]1CC[C@]2(O)C(=O)COC(=O)CCC1CCCC1`: the survivor count is, setting by setting: under setting [1], 6 of 6; (dose: 400.0 mg/kg/injection, schedule: Q01DX009 (ip), vehicle: saline with Tween-80) 5 of 6.
In the case of `NC(N)=Nc1ccc(C(=O)Oc2ccc([N+](=O)[O-])cc2CN2CCCCC2)cc1`, the survivor count runs as follows: (dose: 12.5 mg/kg/injection, schedule: Q01DX009 (ip), vehicle: water) 1 of 6; (dose: 25.0 mg/kg/injection, schedule: Q01DX009 (ip), vehicle: water) 0 of 6.
